Results deposited as PubChem BioAssay AID1259424 (University of Nebraska Medical Center, 2018)
This is one part, drawn at random, of about 14,000 deposited reagents. 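Higher correlation or smaller distance means closer resemblance to KSR1 loss; control wells, including KSR1 knockdowns, recur on many plates.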 Not stated in the record: the time to read-out.

Test: 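Rank knockdowns across the genome by resemblance to the KSR1 depletion profile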 (primary screen)
System: human HCT116 colon cancer cells
Reagents: siRNA pool against human genes, 50 nM
Detection: 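Log2 levels of six mRNAs (branched-DNA multiplex), adjusted by two reference genes and the non-targeting median, then scored against the average KSR1 knockdown pattern as Pearson r and euclidean distance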
Scale: mean correlation with KSR1 profile and KSR1 correlation: higher = expression change more like KSR1 knockdown; mean distance from KSR1 profile: higher = expression change less like KSR1 knockdown

gene symbol,mean correlation with KSR1 profile,mean distance from KSR1 profile,"KSR1 correlation, replicate 1","KSR1 correlation, replicate 2","KSR1 correlation, replicate 3"
S1PR1,0.486,2.61,0.333,0.561,0.41
CAB39L,0.237,1.8,0.0569,0.258,0.161
KLK13,-0.088,1.53,0.282,-0.114,-0.377
DCTN2,-0.292,2.2,-0.0975,-0.404,-0.462
RBPJ,-0.119,2.84,-0.151,-0.227,-0.065
SPRING1,0.893,1.19,0.902,0.948,0.84
POMT2,0.0686,3.44,0.013,0.0874,0.0437
ASGR2,-0.318,2.35,-0.42,-0.289,-0.266
SHBG,0.573,1.93,0.397,0.655,0.545
CATSPERB,0.362,1.79,0.447,0.39,0.329
RPS6KL1,0.195,2.31,0.384,0.187,-0.31
HLA-DQB2,0.628,1.2,0.522,0.371,0.602
RALY,-0.355,2.81,-0.313,-0.287,-0.376
C4BPB,-0.139,2.49,-0.0953,-0.161,-0.24
TMEM141,0.406,2.99,0.315,0.125,0.272
ODAD4,-0.127,2.47,-0.196,-0.247,-0.203

Quoted from the entries so far, 4 entries:
gene symbol,mean correlation with KSR1 profile,mean distance from KSR1 profile,"KSR1 correlation, replicate 1","KSR1 correlation, replicate 2","KSR1 correlation, replicate 3"
SPRING1,0.893,1.19,0.902,0.948,0.84
POMT2,0.0686,3.44,0.013,0.0874,0.0437
ASGR2,-0.318,2.35,-0.42,-0.289,-0.266
SHBG,0.573,1.93,0.397,0.655,0.545

More records:
gene symbol,mean correlation with KSR1 profile,mean distance from KSR1 profile,"KSR1 correlation, replicate 1","KSR1 correlation, replicate 2","KSR1 correlation, replicate 3"
ZNF28,0.885,1.78,0.748,0.813,0.857
PON3,0.28,1.38,0.36,0.12,0.293
CMTR1,-0.28,2.14,-0.212,-0.407,-0.0422
LTB4R,0.649,1.19,0.758,0.63,0.61
SF3A2,-0.203,3.79,-0.119,-0.112,-0.326
CBLB,0.032,2.26,0.158,-0.0499,-0.204
CPOX,0.472,1.5,0.605,0.327,0.289
FKBP1A,-0.365,1.71,-0.307,-0.216,-0.685
SPHAR (retired record),0.0993,2.41,0.0051,-0.0291,0.22
SAP30BP,-0.404,2.63,-0.132,-0.539,-0.569
PARD6A,-0.656,1.06,-0.665,-0.625,-0.268
MRPL23,0.00264,1.15,-0.46,0.438,0.185
CALM1,0.339,1.76,0.115,0.492,0.255
ATP5MK,-0.532,2.54,-0.735,-0.198,-0.753
RSKR,0.598,1.85,0.585,0.176,0.326
GFPT1,0.0276,3.06,-0.106,-0.0995,0.155
SDHB,-0.599,2.31,-0.562,-0.703,-0.499
MESD,-0.588,4.55,-0.58,-0.629,-0.562
SNRPD2,-0.367,2.61,-0.324,-0.375,-0.293
HSD17B1,0.145,1.58,0.29,-0.155,0.109
FOXD3,0.289,1.34,0.391,0.307,0.157
KLC2,-0.266,1.07,-0.486,0.199,-0.228
LRRN1,-0.45,3.3,-0.34,-0.37,-0.365
CRYBG1,0.314,1.22,0.228,0.277,0.368
YJU2,-0.037,1.9,0.0712,-0.0712,-0.196
RILP,0.179,3.56,0.114,0.102,0.0965
TLL1,0.214,3.11,0.302,0.111,0.128
RNASEH2A,-0.0414,1.78,-0.0237,-0.000837,0.00578
CRNKL1,-0.0726,1.81,-0.326,-0.123,0.266
NUMA1,-0.856,2.06,-0.337,-0.759,-0.398
C1GALT1C1,0.214,1.5,-0.0696,-0.175,-0.22
MRPS5,0.586,0.893,0.0755,0.483,0.698
STAT1,0.47,1.58,0.625,0.407,0.416
LEFTY2,-0.0801,1.44,-0.0854,-0.0188,-0.0201
